In publication PMC10163288:
The list shows a part of the results.

B1: il10ra_site1_normal_mot_HHH_b1_06994_000000193_0001_40_55_H_._HHH_b1_06996_0001_0000100003_0000001_0 (protein)
chain: SSSSDQEEELARAALRLVEQIIRAGNEEDARRFLRAARRAVELLGDDEILRKLEELEEELSSSSS
B2: il10ra_site1_normal_mot_HHH_b1_04163_000000176_0001_1_18_H_._HHH_b1_02443_af2_0001_0000200007_0000002_0 (protein)
chain: SSSSSDEELEELLEKLEELLEKGDEQKLAQVLTRVLELAAELNDEEARELFHKVAEAYFSSSSSS
B3: il10ra_site1_sap_11_mot_1c3c3e46dde0d4e4be3ec3dd9add6289_0001_000000096_0001_34_50_H_._HHH_b2_04467_0001_0000100002_0000002_0_0001 (protein)
chain: SSSSSNEEVQEAQELMREANEIEDPEEARRVAEEAVEILEEAGNRVALFAAELILRDLRSSSSSS
B4: il10ra_site1_normal_mot_HHH_b1_08411_af2_000000053_0001_1_20_H_._HHH_b1_03852_0001_0000300027_0000001_0 (protein)
chain: SSSSQEAFEFLRRIIEEVLELFREGDPEEAERLLEEAREYLQERGNELFVISLEQAEKAIRSSSS
B5: il10ra_site1_sap_21_mot_HHH_b1_05056_000000217_0001_1_20_H_._HHH_b1_03969_0001_0000300035_0000001_0_0001 (protein)
chain: SSSSSEEAWELLREALELRANGNPEEAQEVVEEAEEIAKELGDRAVLFAIEHLIRDLREILSSSS
B6: il10ra_site1_normal_mot_HHH_b2_00984_000000042_0001_1_20_H_._HHH_b1_06735_0001_0000100004_0000002_0 (protein)
chain: SSSSSDEELEERIRELLEELEEITDPKEFSRVAVEALRLIYELQDPELLQALWRIIKEWSSSSSS
B7: il10ra_site1_sap_18_mot_HHH_b1_00566_000000151_0001_22_39_H_._HHH_b1_01048_0001_0000300026_0000001_0_0001 (protein)
chain: SSSSDNRELFELSRKAAELLSNGNPEEAEKLLERAQEIAEEANNDVLLFIIRYVLRIVEENSSSS
B8: il10ra_site1_sap_20_mot_HHH_b2_06507_af2_000000245_0001_1_17_H_._HHH_b2_04638_af2_0001_0000100003_0000001_0_0001_af2pred_0001 (protein)
chain: SKIEEILRELLEEDPHNSLVLSALLLFEQERELGAPPEHVERAVEAALRLFGDPEAEEIIEELRK
B9: il10ra_site1_sap_12_mot_HHH_b2_07579_000000275_0001_1_19_H_._HHH_b1_05644_0001_0000100003_0000001_0_0001_af2pred_0001 (protein)
chain: SSSSDERLELTLKMIKFALEEGDPEAAKRLARAAADLARKDGDEELLEEIERLLKEAEELLSSSS
B10: il10ra_site1_sap_14_mot_HHH_b1_06786_000000000_0001_1_20_H_._HHH_b1_03651_0001_0000300016_0000001_0_0001 (protein)
chain: SSSSDEAEERIVRLILRVARLFIRGDREEARKVLEEAEELAEENNDEELERAIEIAREAIDSSSS
B11: il10ra_site1_sap_23_mot_HHH_b2_00984_000000042_0001_1_20_H_._HHH_b2_05675_0001_0000200025_0000001_0_0001 (protein)
chain: SSSSDEEEEVEELLKELEELVKRNDEEEFAQVAARIMRLIYELGDPRLAEELIRILAKFLNSSSS
B12: il10ra_site1_normal_mot_HHH_b2_00230_000000227_0001_1_19_H_._HHH_b1_04853_0001_0000100025_0000001_0 (protein)
chain: SSSSDEAYELARKFIEEIVRLLREGDREEAERLAEELLELLRELGNEAATFAVEQLLRLVRSSSS
B13: il10ra_site1_normal_mot_HHH_b1_05672_af2_000000246_0001_1_19_H_._HHH_b2_08346_af2_0001_0000100008_0000001_0 (protein)
chain: SSSDEEQRIAQLLFRAVRALFNGNPEEAKKLVEEAEELARELGDEELERYIEIAKHFIEAHSSSS
B14: il10ra_site1_normal_mot_HHH_b1_06816_000000239_0001_1_19_H_._HHH_b1_05245_af2_0001_0000500032_0000001_0_af2pred_0001 (protein)
chain: SSSDEEEAEEIFEKAEELIKRLLEEGDPEEASKVLREAIELLLRLGNPHLARELSRLFIELSSSS
B15: il10ra_site1_normal_mot_HHH_b2_06142_af2_000000101_0001_1_18_H_._HHH_b2_05708_0001_0000200018_0000002_0_af2pred_dldesign_0_af2pred (protein)
chain: SSSSDLEELLRRLAQLRTQVSKEKAKELFDAMVEAHKLLQAGKPEEAKKVLEEAIAKALESSSSS
B16: il10ra_site1_sap_22_mot_HHH_b1_05185_000000011_0001_22_39_H_._HHH_b1_06411_0001_0000200014_0000002_0_0001 (protein)
chain: SSSSSEEEQELKELLEELEELLKEGDEERFLELAQRISRLALRAKDKEVMRRVDQLAIEFYSSSS
B17: il10ra_site1_sap_25_mot_HHH_b1_05056_000000217_0001_1_20_H_._HHH_b2_03638_0001_0000300027_0000001_0_0001 (protein)
chain: SSSSSEERVEELIEEAEELLERGDPREAIKVLQEALRLVYQLGNEELLQKVWELALKVANKSSSS
B18: il10ra_site1_normal_mot_HHH_b1_02997_000000220_0001_39_52_H_._HHH_b1_01446_af2_0001_0000600038_0000001_0 (protein)
chain: SSSSSDETERVIELIRQAFEIEDPEEVEELLEEARELAEEANNENARINVEYLLRILENSSSSSS
B19: il10ra_site1_normal_mot_HHH_b2_00479_000000091_0001_1_12_H_._HHH_b2_02732_0001_0000300022_0000001_0_af2pred_dldesign_0_af2pred (protein)
chain: SSSSSSEEVRKEVEELLEKLFKVNPDEALALLKKALDLAADNDDAELQARIREATRKWLESSSSS
B20: il10ra_site1_normal_mot_HHH_b1_06789_af2_000000041_0001_1_20_H_._HHH_b2_03029_0001_0000300011_0000002_0 (protein)
chain: SSSSSAEYLVRQALKAAKRLYEQGDPERAKEAIEIAENLARNANNPELEKLVEEFAEELENSSSS
B21: il10ra_site1_sap_21_mot_HHH_b1_00682_000000211_0001_1_20_H_._HHH_b2_04588_0001_0000400026_0000001_0_0001_af2pred_0001 (protein)
chain: SSSSDEEKRALHLALRAAELIQEGDEEEARKVIEELEEIVEKIGDEKLKLTVRFEKALLRSSSSS
B22: il10ra_site1_normal_mot_HHH_b2_00612_000000251_0001_1_14_H_._HHH_b2_04981_0001_0000200014_0000002_0 (protein)
chain: SSSSDEEFEEVRRLLEHASELAQEGDKEEAERLVEEAIELAREGGNQLLTESAEYLLRIIRSSSS
B23: il10ra_site1_normal_mot_HHH_b1_05357_000000034_0001_23_39_H_._HHH_b2_02453_0001_0000200006_0000001_0 (protein)
chain: SSSSDVEEELEELLEEAKRIEDRARLSHVLIRAYALATHRNDPELEEFVREEALKIFDEGSSSSS
B24: il10ra_site1_sap_33_mot_HHH_b2_07521_000000141_0001_20_37_H_._HHH_b2_01915_0001_0000700039_0000001_1_0001 (protein)
chain: SSSSSEEVEELLEQARELAEEGDFEEAAKLLLEALQIAAELQDPELLRLVWEVLHEVARLNSSSS
B25: il10ra_site1_normal_mot_HHH_b2_07521_000000141_0001_20_37_H_._HHH_b1_02137_0001_0000100002_0000001_0_af2pred_0001 (protein)
chain: SSSSDKEEEFVELAIRFAEWLAEQGDPEAAKIVLRAAKRAAELANDEELQEKIEKVLEEISSSSS
B26: il10ra_site1_normal_mot_HHH_b1_02881_000000046_0001_1_20_H_._HHH_b1_02511_af2_0001_0000900024_0000001_0 (protein)
chain: SSSSSDVEERAEKIFEQLEELLERRDADEFYRLIRELIELAVEYNSEEVLKLVREILERLSSSSS
B27: il10ra_site1_normal_mot_HHH_b2_01397_000000078_0001_23_39_H_._HHH_b2_02890_0002_0000100003_0000001_0 (protein)
chain: SSSSSVAERSVRRLLEAAKHIDDPEYVKLTLKFAKALARSENNEELEREIEKVEKELEELLSSSS
B28: il10ra_site1_sap_7_mot_HHH_b2_00984_000000042_0001_1_20_H_._HHH_b1_04665_0001_0000200011_0000002_0_0001 (protein)
chain: SSSSDQEVVELLREAFRLMLRGNPEEAKEVLEEARQLAEEANDERALKMVRDLLAIIESHSSSSS
B29: il10ra_site1_sap_24_mot_HHH_b1_04582_000000276_0001_1_18_H_._HHH_b2_03365_0001_0000400018_0000001_0_0001 (protein)
chain: SSSSSDIAEVAQEALELAIRLGDAETVRAIWRLVREYFEKGDPEIEEELEELLEELRERGSSSSS
B30: il10ra_site1_sap_16_mot_HHH_b1_04573_000000273_0001_43_57_H_._HHH_b1_02099_af2_0001_0000700024_0000001_0_0001 (protein)
chain: SSSSDSHELAERAVKELIELVEEGNPEEAEKLAEKVEEELKELGDPLAARVIKWAIEVQRSSSSS
B31: il10ra_site1_sap_33_mot_HHH_b2_02876_000000208_0001_1_16_H_._HHH_b2_05821_af2_0001_0000300021_0000002_0_0001_af2pred_dldesign_0_af2pred (protein)
chain: SSSSSDVEEVARRLRELLRAGRFDEADALLAEATAELEAKGDADAVRLLRVSYEIQKASISSSSS
B32: il10ra_site1_sap_37_mot_HHH_b2_02900_000000189_0001_39_52_H_._HHH_b2_02951_af2_0001_0000200016_0000001_0_0001_af2pred_0001 (protein)
chain: SSSSDEEAEEIEEELKELLKRGDLEEARELLKRLLELALELKNPRLLRAAKEILIAIKRLSSSSS
B33: il10ra_site1_sap_21_mot_HHH_b2_08186_000000021_0001_43_56_H_._HHH_b2_02413_af2_0001_0000100002_0000001_0_0001_af2pred_dldesign_0_af2pred (protein)
chain: SSSSDPEAEFDRLEAELKAAIAAGKREEATALHLRLAEIARATDDPAWVARLRELAREIFSSSSS
B34: il10ra_site1_sap_32_mot_HHH_b1_05088_af2_000000046_0001_20_36_H_._HHH_b2_04743_0001_0000100005_0000002_0_0001_af2pred_0001 (protein)
chain: SSSSTELAQEVLELLRRILELEREGNPEEAKELAEEAEELARRGNSLNLEAQVKFLEKLLNSSSS
B35: il10ra_site1_normal_mot_2c1a291787c6f40772924d4e9068d803_0001_af2_000000222_0001_34_48_H_._HHH_b1_04090_0001_0000200015_0000001_0_af2pred_0001 (protein)
chain: SSSSSSEEELFHLLIKAYLLARRDPEKAQEVLEEAIEIAEEEGDRLARTALELLLRLIENSSSSS
B36: il10ra_site1_sap_13_mot_HHH_b1_00638_000000236_0001_22_38_H_._HHH_b1_02696_0001_0000200005_0000001_0_0001 (protein)
chain: SSSSSSEELYRLIRRANELLKEGNPEEAREVLEEAKELAEQENNWTAKIQLEFIEKELESSSSSS
B37: il10ra_site1_normal_mot_b26a303360aa2756ef5b79665ce52f45_0001_000000179_0001_1_11_H_._HHH_b1_06404_af2_0001_0000300005_0000002_0 (protein)
chain: SSSSDEETYELARRAAELSSRYEEEGDERLREEVEELLEEARELGNPVVEFSIEHALRDISSSSS

target: il10ra, Q13651; test: yeast display titration

Apparent Kd, inactive:
B1 no binding seen
B2 no binding seen
B3 no binding seen
B4 no binding seen
B5 no binding seen
B6 no binding seen
B7 no binding seen
B8 no binding seen
B9 no binding seen
B10 no binding seen
B11 no binding seen
B12 no binding seen
B13 no binding seen
B14 no binding seen
B15 no binding seen
B16 no binding seen
B17 no binding seen
B18 no binding seen
B19 no binding seen
B20 no binding seen
B21 no binding seen
B22 no binding seen
B23 no binding seen
B24 > 2780 nM
B25 no binding seen
B26 no binding seen
B27 no binding seen
B28 no binding seen
B29 no binding seen
B30 no binding seen
B31 no binding seen
B32 no binding seen
B33 no binding seen
B34 no binding seen
B35 no binding seen
B36 no binding seen
B37 > 657 nM

An excerpt of the results above:
Apparent Kd, inactive:
B19 no binding seen
B20 no binding seen
B21 no binding seen
